PubChem BioAssay AID652259 – Drosophila RNAi Screening Center – 2013
The deposit covers about 22,000 reagents; this is a random part of those with a known target gene and a result. Over the whole deposit, 233 (1.1%) are marked active. 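Light values are raw, unnormalised plate reads; the ratio scores behind the reporter calls were not deposited.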 Unmarked entries are inactive. Names joined by + are all predicted targets of the reagent. Not stated in the record: the amount of reagent, the time to read-out, the dose of the treatment.

Assay: 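Genome-wide hunt for genes that control Wingless pathway activity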 (primary screen)
Cells: Drosophila clone 8 imaginal disc epithelial cells
Reagent: long dsRNA against Drosophila genes
Conditions: pathway stimulated by co-transfected Wingless expression plasmid
Measured: 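Firefly luciferase from a tcf-site Wingless reporter, measured alongside co-transfected Renilla luciferase that tracks transfection; pathway stimulated by a Wingless plasmid; the firefly-to-Renilla ratio is not deposited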
Reading the numbers: firefly reporter light: higher = more Wg reporter light, before normalisation; Renilla control light: higher = more transfected or surviving cells
Hit rule: 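Strong candidates differ from their plate mean by at least two out of four per-plate statistical tests; weak candidates meet just one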
Meaning of the calls: active = candidate regulator (raises or lowers reporter); inactive = not a candidate

| gene | amplicon | reporter change call, replicate 1 | firefly reporter light, replicate 1 | firefly reporter light, replicate 2 | Renilla control light, replicate 1 | Renilla control light, replicate 2 |
| --- | --- | --- | --- | --- | --- | --- |
| mgl (GeneID 8674055) | DRSC17800 | – | 24232 | – | 11076 | – |
| mgl (GeneID 8674055) | DRSC17823 | – | 1531 | 7268 | 600 | 1621 |
| mgl (GeneID 8674055) | DRSC17859 | – | 20519 | – | 8992 | – |
| mgl (GeneID 8674055) | DRSC18004 | – | 18432 | – | 9792 | – |
| Drs (GeneID 38419) | DRSC08657 | – | 8416 | – | 3941 | – |
| CG43103 (GeneID 12798325) | DRSC05643 | – | 23383 | – | 16481 | – |
| ACXB (GeneID 53427) | DRSC00845 | – | 2243 | 4998 | 841 | 2482 |
| CG10301 (GeneID 42797) | DRSC14226 | – | 12816 | – | 9864 | – |
| Fntb (GeneID 41989) | DRSC15244 | – | 2588 | 5844 | 973 | 1862 |
| tfc (GeneID 38141) | DRSC07953 | – | 2933 | – | 1850 | – |
| tfc (GeneID 38141) | DRSC07954 | – | 2853 | – | 1216 | – |
| tfc (GeneID 38141) | DRSC08626 | – | 15370 | – | 4138 | – |
| tfc (GeneID 38141) | DRSC21704 | – | 8.53e5 | 7.97e5 | 4.29e5 | 3.64e5 |
| CG14270 (GeneID 31319) | DRSC17913 | – | 19184 | – | 11440 | – |
| CG7530 (GeneID 41784) | DRSC16255 | – | 10032 | 8.78e5 | 3355 | 2.78e5 |
| CG6712 (GeneID 34631) | DRSC02981 | – | 25361 | 7.03e5 | 9092 | 3.52e5 |
| CG6712 (GeneID 34631) | DRSC21690 | – | 4.86e5 | 4.83e5 | 2.70e5 | 2.37e5 |
| CG33017 (GeneID 36811) | DRSC06573 | – | 5696 | – | 2240 | – |
| CG33017 (GeneID 36811) | DRSC06574 | – | 7284 | – | 2883 | – |
| Sam-S (GeneID 48552) | DRSC00758 | – | 8709 | – | 2619 | – |
| lqfR (GeneID 42632) | DRSC14703 | – | 1930 | 5465 | 716 | 1405 |
| lqfR (GeneID 42632) | DRSC14704 | – | 38283 | – | 8355 | – |
| CG17752 (GeneID 42337) | DRSC15262 | – | 16950 | – | 3482 | – |
| CG7747 (GeneID 36820) | DRSC07038 | – | 10548 | – | 3356 | – |
| wech (GeneID 44653) | DRSC06606 | – | 11448 | – | 4555 | – |
| CG34015 (GeneID 3885570) | DRSC19140 | – | 3480 | – | 900 | – |
| Klp10A (GeneID 32049) | DRSC19601 | – | 2187 | 5613 | 849 | 1752 |
| CG11889 + CG11891 | DRSC14426 | – | 20349 | – | 17099 | – |
| CG11889 + CG11891 | DRSC14427 | – | 19517 | – | 12249 | – |
| dgo (GeneID 36139) | DRSC06134 | – | 24035 | – | 6025 | – |
| CG43278 (retired record) (GeneID 12797947) | DRSC17524 | – | 5227 | – | 1210 | – |
| Gr98b (GeneID 117327) | DRSC21675 | – | 4.60e5 | 4.69e5 | 2.36e5 | 2.08e5 |
| Muc26B (GeneID 50424) | DRSC02322 | – | 2452 | 6576 | 829 | 2592 |
| CG15812 (GeneID 38379) | DRSC08479 | – | 4604 | – | 2308 | – |
| Ufsp2 (GeneID 39687) | DRSC10231 | – | 2928 | – | 1328 | – |
| CG32834 (GeneID 318238) | DRSC21929 | – | 3.41e5 | 4.23e5 | 1.34e5 | 1.71e5 |
| bon (GeneID 44235) | DRSC16914 | Wg reporter activity raised (active) | 60055 | – | 4112 | – |
| Polr2H (GeneID 40415) | DRSC11642 | – | 7733 | – | 1829 | – |
| nau (GeneID 42799) | DRSC17011 | – | 12275 | – | 9285 | – |
| CG13319 (GeneID 36423) | DRSC06356 | – | 5282 | – | 1172 | – |
| CG14817 (GeneID 31145) | DRSC18547 | – | 17346 | – | 12432 | – |
| wal (GeneID 36252) | DRSC07717 | – | 9763 | – | 2291 | – |
| CG33506 (GeneID 3346177) | DRSC05981 | – | 15608 | – | 4802 | – |
| CG18537 (GeneID 37094) | DRSC06764 | – | 5021 | – | 2000 | – |
| CG31008 (GeneID 318554) | DRSC14028 | – | 2722 | – | 1082 | – |
| r + CG13012 | DRSC19531 | – | 20272 | – | 8293 | – |
| CG32100 (GeneID 39400) | DRSC09725 | – | 4186 | – | 1761 | – |
| CG32100 (GeneID 39400) | DRSC10331 | – | 5125 | – | 1772 | – |
| CG10041 (GeneID 41496) | DRSC14179 | – | 17673 | – | 4288 | – |
| Npc2a (GeneID 33374) | DRSC00698 | – | 2242 | 6540 | 759 | 2246 |
| Spn28Da (GeneID 34082) | DRSC02162 | – | 1324 | 4017 | 435 | 2025 |
| Ski6 (GeneID 34721) | DRSC02491 | – | 4845 | 7532 | 1559 | 3174 |

No new results follow: entries from further up.
| gene | amplicon | reporter change call, replicate 1 | firefly reporter light, replicate 1 | firefly reporter light, replicate 2 | Renilla control light, replicate 1 | Renilla control light, replicate 2 |
| --- | --- | --- | --- | --- | --- | --- |
| tfc (GeneID 38141) | DRSC07953 | – | 2933 | – | 1850 | – |
| tfc (GeneID 38141) | DRSC07954 | – | 2853 | – | 1216 | – |
| tfc (GeneID 38141) | DRSC08626 | – | 15370 | – | 4138 | – |
| tfc (GeneID 38141) | DRSC21704 | – | 8.53e5 | 7.97e5 | 4.29e5 | 3.64e5 |
| CG14270 (GeneID 31319) | DRSC17913 | – | 19184 | – | 11440 | – |
| CG7530 (GeneID 41784) | DRSC16255 | – | 10032 | 8.78e5 | 3355 | 2.78e5 |
| CG6712 (GeneID 34631) | DRSC02981 | – | 25361 | 7.03e5 | 9092 | 3.52e5 |

More reagents:
| gene | amplicon | reporter change call, replicate 1 | firefly reporter light, replicate 1 | firefly reporter light, replicate 2 | Renilla control light, replicate 1 | Renilla control light, replicate 2 |
| --- | --- | --- | --- | --- | --- | --- |
| lncRNA:CR32661 + lncRNA:CR43157 | DRSC19794 | – | 20192 | – | 10356 | – |
| CG32457 (GeneID 318040) | DRSC11596 | – | 4352 | – | 1735 | – |
| CG32457 (GeneID 318040) | DRSC21722 | – | 3.36e5 | 2.87e5 | 1.23e5 | 1.00e5 |
| Uba5 (GeneID 32094) | DRSC19775 | – | 21176 | – | 10380 | – |
| ND-20 (GeneID 32565) | DRSC20164 | – | 3095 | 10176 | 1478 | 2986 |
| CG2059 (GeneID 31663) | DRSC18203 | – | 18839 | – | 9837 | – |
| Or83c (GeneID 40744) | DRSC12359 | – | 15757 | – | 3221 | – |
| CG13526 (GeneID 37613) | DRSC04168 | – | 2369 | 8836 | 824 | 3355 |
| Hsc70-2 (GeneID 41609) | DRSC16710 | – | 12640 | – | 2610 | – |
| Bug22 (GeneID 34429) | DRSC02842 | – | 2379 | 5350 | 893 | 1997 |
| Elk (GeneID 37047) | DRSC07608 | – | 12533 | – | 2162 | – |
| CG9662 (GeneID 33554) | DRSC00723 | – | 4528 | 6999 | 1932 | 1257 |
| CG7582 (GeneID 43492) | DRSC16261 | – | 6058 | – | 2468 | – |
| Nop60B (GeneID 37873) | DRSC04627 | – | 7722 | – | 2726 | – |
| CG10348 (GeneID 35132) | DRSC02043 | – | 5013 | 9696 | 1318 | 4419 |
| CG10348 (GeneID 35132) | DRSC21908 | – | 4.25e5 | 4.59e5 | 1.22e5 | 1.26e5 |
| Csas (GeneID 317923) | DRSC22390 | – | 3.82e5 | 4.39e5 | 1.22e5 | 1.41e5 |
| CG11737 (GeneID 41009) | DRSC14364 | – | 12134 | – | 2113 | – |
| CG13907 (GeneID 38104) | DRSC08377 | – | 18040 | – | 4732 | – |
| beat-IIIb (GeneID 35031) | DRSC02435 | – | 2674 | 7405 | 1026 | 4373 |
| CG11192 (GeneID 37309) | DRSC06057 | – | 5908 | – | 1840 | – |
| polybromo (GeneID 42954) | DRSC14307 | – | 1730 | 3552 | 1050 | 1250 |
| CG34160 (GeneID 5740175) | DRSC01131 | – | 19885 | – | 8210 | – |
| osa (GeneID 42130) | DRSC17022 | Wg reporter activity raised (active) | 10848 | 18806 | 1412 | 1776 |
| barr (GeneID 35287) | DRSC03488 | – | 2269 | 11552 | 321 | 2008 |
| CG14034 (GeneID 33751) | DRSC02359 | – | 1883 | 5362 | 904 | 1936 |
| brv1 (GeneID 40116) | DRSC11076 | – | 8980 | – | 2777 | – |
| phtf (GeneID 35583) | DRSC05023 | – | 13888 | – | 4128 | – |
| Chchd3 (GeneID 43672) | DRSC16981 | – | 7276 | – | 2167 | – |
| CG7841 (GeneID 39672) | DRSC10922 | – | 5565 | – | 2459 | – |
| ninaE (GeneID 42367) | DRSC17014 | – | 14101 | – | 3142 | – |
| Obp83g (GeneID 170878) | DRSC12269 | – | 13720 | – | 3409 | – |
| Mybbp1A (GeneID 31010) | DRSC18788 | – | 1171 | 6234 | 889 | 1876 |
| Rgk3 (GeneID 5740446) | DRSC04250 | – | 3426 | 11909 | 824 | 4977 |
| Rgk3 (GeneID 5740446) | DRSC04251 | – | 3466 | 9824 | 1270 | 4235 |
| Rgk3 (GeneID 5740446) | DRSC04254 | – | 2824 | 5819 | 791 | 1876 |
| Rgk3 (GeneID 5740446) | DRSC04255 | – | 2924 | 9259 | 699 | 2960 |
| cathD (GeneID 45268) | DRSC07588 | – | 2512 | 3377 | 411 | 2112 |
| ATPsynbeta (GeneID 43829) | DRSC17194 | – | 16855 | – | 8889 | – |
| Ripalpha (GeneID 34351) | DRSC02657 | – | 1985 | 5930 | 921 | 2981 |
| CG1513 (GeneID 36028) | DRSC05194 | – | 19572 | – | 7059 | – |
| CG1513 (GeneID 36028) | DRSC06553 | – | 8145 | – | 1680 | – |
| CG1513 (GeneID 36028) | DRSC06554 | – | 3529 | 8908 | 1260 | 3124 |
